# These are yes or no findings as the source states them, for the method shown. For some assays here: Binding seen in cells or lysates may run through a third protein. Some results given as binding are weak or reduced against the parent protein; the word gives no strength.
# Protein sequences, listed by entry. Tags and fused reporters are not part of them.
# UniProt P63092: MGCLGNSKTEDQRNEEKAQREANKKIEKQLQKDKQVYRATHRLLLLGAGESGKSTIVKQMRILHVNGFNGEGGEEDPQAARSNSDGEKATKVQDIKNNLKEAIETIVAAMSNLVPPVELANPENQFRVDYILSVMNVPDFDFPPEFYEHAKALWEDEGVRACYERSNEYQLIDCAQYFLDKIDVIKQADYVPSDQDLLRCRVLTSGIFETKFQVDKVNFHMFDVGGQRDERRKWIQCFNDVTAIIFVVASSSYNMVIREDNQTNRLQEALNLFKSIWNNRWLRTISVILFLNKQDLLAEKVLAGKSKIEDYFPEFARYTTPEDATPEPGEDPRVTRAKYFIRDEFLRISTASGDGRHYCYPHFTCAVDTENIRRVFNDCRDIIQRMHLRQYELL
# Legend:
# [1] = target: bovine adenylyl cyclase AC8, purified, tag-free (bovine) (UniProt E1BQ12); experiment: cross-linking; XL-MS with DSS and PDH/DMTMM on the purified AC8 preparation: links to endogenous proteins copurified with AC8 from HEK293 cells
# [2] = target: bovine adenylyl cyclase AC8, purified, tag-free (bovine) (UniProt E1BQ12); experiment: cross-linking; XL-MS with DSS and PDH/DMTMM on purified proteins: AC8 alone, AC8:Gαs 1:1.5, AC8:Gβγ 1:3, AC8:CaM 1:2, AC8:CaM:Gαs 1:2:1.5; 50 mM HEPES pH 7.5, 150 mM NaCl, 0.02% GDN, 0.5 mM CaCl2, 1 mM MgCl2, 2.5 mM MnCl2, 100 µM GTPγS; 25 °C; both purified
binding [1],binding [2],Substance
binds,,endogenous Gαs (GNAS) copurified with AC8 (from UniProt P63092 1-394)
,binds,"bovine adenylyl cyclase AC8, purified, tag-free (from UniProt E1BQ12 1-1253) (enzyme)"
